Test results: PubChem BioAssay AID2551 (National Center for Advancing Translational Sciences (NCATS), 2010)
In all, about 310,000 compounds went through this assay and about 17,000 (5.5%) were called active. Inconclusive means that the source gave no clear call. Such entries were picked first, then a sample of the others. Calls come from the whole dose curve; as a rule, active = well fitted inhibition curve with a large enough effect; inconclusive = small, poorly fitted or top-dose-only effect, or effect the other way; inactive = no such curve, though single readings can be large or run the other way. Potencies of inconclusive entries are doubtful fits and often do not repeat.

Amino acid sequences for entries named in this document (tags omitted). A change or cut given only in a name is not applied to a line headed by its entry.
UniProt P51450: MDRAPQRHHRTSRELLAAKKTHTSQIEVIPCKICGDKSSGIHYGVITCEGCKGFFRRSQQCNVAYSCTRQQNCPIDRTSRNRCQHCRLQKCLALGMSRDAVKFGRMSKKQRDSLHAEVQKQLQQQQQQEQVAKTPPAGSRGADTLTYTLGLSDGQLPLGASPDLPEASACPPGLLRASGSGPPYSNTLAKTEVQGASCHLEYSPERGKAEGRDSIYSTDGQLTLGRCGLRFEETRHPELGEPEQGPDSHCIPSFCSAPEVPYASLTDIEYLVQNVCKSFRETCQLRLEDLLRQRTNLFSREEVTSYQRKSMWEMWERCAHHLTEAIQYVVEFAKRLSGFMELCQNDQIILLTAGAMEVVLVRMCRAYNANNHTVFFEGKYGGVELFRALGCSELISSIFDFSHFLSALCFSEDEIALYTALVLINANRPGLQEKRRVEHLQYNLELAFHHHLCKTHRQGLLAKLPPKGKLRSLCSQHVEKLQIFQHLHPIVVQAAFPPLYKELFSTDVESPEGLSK

Biological target: Nuclear receptor ROR-gamma (Mus musculus) (UniProt P51450)
Assay: qHTS for inhibitors of ROR gamma transcriptional activity; note: nearly all actives have a fitted effect of over 60% in size
Conditions: Drosophila S2 Gal4-RORgamma UAS-luciferase reporter, 20 h; activity change, negative = inhibition: at 53.6 µM (top of the series)
Procedure, shortened: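 ROR gamma transcriptional activity was tracked as Gal4-UAS luciferase output in stably transfected Drosophila Schneider cells, with compound added 1 hr before 700 uM copper sulfate induction and a 20 hr ambient-temperature incubation.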
% is set by controls: 0 for no effect and ±100 for the full control effect; potency is the fitted concentration of half-maximal effect.

| SMILES | activity change, negative = inhibition | Potency |
| --- | --- | --- |
| Cc1ccc(NC(=O)c2cc(=O)n(Cc3ccccc3)c(=O)[nH]2)cc1C | inactive: 25.9% | – |
| COc1ccc(CNc2ccnc(-c3ccccc3OC)n2)c(OC)c1 | inactive: 21.9% | – |
| COc1ccccc1-c1cc(C(F)(F)F)nc(S(=O)(=O)CCCC(=O)NC(C)C)n1 | – | active: 4.47 µM |
| O=S(=O)(c1ccc2c(c1)OCCCO2)N1CCNCC1 | inactive: -5.57% | – |
| O=C(CSCc1ccccc1)N1CCN(c2cccc(C(F)(F)F)c2)CC1 | inactive: 24% | – |
| Cc1ccc(/C=C/C(=O)Nc2ccc(N(C)C)cc2)o1 | inactive: -4.82% | – |
| Cc1nc(SCc2ccccc2F)c2cnn(-c3ccccc3)c2n1 | – | inconclusive: 20 µM [activator, partial curve, poor fit] |
| O=C(CSc1nnnn1-c1ccc2c(c1)OCO2)NCc1ccccc1 | inactive: 10.1% | – |
| CCN1CCN(c2ccc(S(=O)(=O)N3CCCCC3)cc2NC(=O)COc2ccc(F)cc2Cl)CC1 | – | inconclusive: 12.6 µM [inhibitor, partial curve] |
| CC1CN(C(=O)COC(=O)c2ccc(NC(=O)CC#N)cc2)CC(C)O1 (configuration not stated) | inactive: 8.97% | – |
| CCCS(=O)(=O)c1c(S(=O)(=O)CCC)c2ccc(C(N)=O)cn2c1C(=O)c1ccc(OC)cc1 | inactive: 37.4% | – |
| CCc1ccccc1NC(=O)CSc1nc2n[nH]c(C)c2c(=N)n1-c1cccc(OC)c1 | – | inconclusive: 25.1 µM [activator, single point] |
| S=C(Nc1ccc(Cl)c(Cl)c1)NN1CCOCC1 | – | active: 7.94 µM |
| CCn1c(C)nc2cc(C(=O)NNS(=O)(=O)c3ccc(C)c(C)c3)ccc21 | – | inconclusive: 15.8 µM [inhibitor, single point] |
| Cc1ccccc1NC(=O)OCc1cccnc1Oc1ccc(Cl)cc1 | – | inconclusive: 0.224 µM [activator, full curve] |
| CCn1c(/C(C#N)=N/O)nc2ccccc21 | – | active: 8.91 µM |
| CCOc1ccc(/C=C2\SC(=S)NC2=O)cc1OC | – | inconclusive: 25.1 µM [inhibitor, single point] |
| COc1ccccc1N1CCN(C(=O)C2CCN(C(=O)c3ccccc3C)CC2)CC1 | – | inconclusive: 12.6 µM [activator, partial curve, poor fit] |
| Cc1cccc(-c2nc(CS(=O)CC(=O)NCCc3ccc(Cl)cc3)c(C)o2)c1 (configuration not stated) | inactive: 6.19% | – |
| CSc1nnc(NC(=O)c2nc(S(=O)(=O)Cc3ccc(C)cc3)ncc2Cl)s1 | – | inconclusive: 22.4 µM [inhibitor, single point] |
| S=C(NCc1ccc(Cl)cc1)Nc1ccccc1Cl | – | active: 12.6 µM |
| CCC(=O)OCCNc1cc(Sc2nc3ccccc3[nH]2)c2nonc2c1[N+](=O)[O-] | – | active: 3.16 µM |

Given as tab-separated lines: entries from further up
SMILES	activity change, negative = inhibition	Potency
O=C(CSc1nnnn1-c1ccc2c(c1)OCO2)NCc1ccccc1	inactive: 10.1%	–
CCN1CCN(c2ccc(S(=O)(=O)N3CCCCC3)cc2NC(=O)COc2ccc(F)cc2Cl)CC1	–	inconclusive: 12.6 µM [inhibitor, partial curve]
